Record: PubChem BioAssay AID1159578 (Peter MacCallum Cancer Centre, 2015)

- Aim: 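siRNA pools altering how lymphatic endothelial cells close a scratch wound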 (primary screen)
- System: human lymphatic endothelial cells
- Reagent: siRNA pool against human genes, 40 nM
- Duration: 48 h after transfection
- Measured: 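High-content imaging of dye-stained cells in a scratch assay measures filled wound area and nuclei per well; duplicate means given as ratio to mock and robust z-score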
- Scale: migration robust z-score: higher = faster migration into the scratch; nuclei per well: higher = more cells in the well
- Active means: 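Pools averaging fewer than 3300 nuclei are never called; remaining pools count as changed when migration robust z lies outside -2 to 2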
- Meaning of the calls: active = migration changed; inactive = no migration change, or too few cells
This is one part, drawn at random, of about 18,000 deposited reagents. About 1,030 of them (5.7%) count as active. 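Inactive calls also include pools with fewer than 3300 nuclei, whose migration was not assessed.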 Raw values vary from plate to plate and are shown uncorrected. A number with no mark means an inactive call. Further read-outs or replicates are left out here.

no.	gene	migration robust z-score	migration class with cell-count check	nuclei per well, duplicate mean
1	STK11IP	3.96 (active)	migration z above 2; enough cells	6888
2	CXCL11	1.38	migration z between -2 and 2; enough cells	6284
3	THAP5	0.4	migration z between -2 and 2; enough cells	5353
4	TRIM32	-1.79	migration z between -2 and 2; enough cells	5864
5	DYNC1H1	-0.35	migration z between -2 and 2; enough cells	6600
6	CD2AP	-0.17	migration z between -2 and 2; enough cells	6230
7	TUBD1	-0.78	migration z between -2 and 2; enough cells	5587
8	CYP2C8	-1.4	migration z between -2 and 2; enough cells	5722
9	UPB1	-0.39	migration z between -2 and 2; enough cells	6052
10	FUT5	-0.57	migration z between -2 and 2; enough cells	5758
11	ACTC1	-0.24	migration z between -2 and 2; enough cells	5848
12	MIA	0.8	migration z between -2 and 2; enough cells	6516
13	NOX1	0.94	migration z between -2 and 2; enough cells	5936
14	MPLKIP	-1.36	migration z between -2 and 2; enough cells	5291

3 entries from above, showing only “migration class with cell-count check”:
CD2AP = migration z between -2 and 2; enough cells
TUBD1 = migration z between -2 and 2; enough cells
CYP2C8 = migration z between -2 and 2; enough cells

The list goes on.
no.	gene	migration robust z-score	migration class with cell-count check	nuclei per well, duplicate mean
15	CBL	-0.39	migration z between -2 and 2; enough cells	5828
16	PIF1	-0.36	migration z between -2 and 2; enough cells	5589
17	RNF44	-1.34	migration z between -2 and 2; enough cells	6123
18	BMS1	0.5	migration z between -2 and 2; enough cells	3342
19	ZFC3H1	-0.69	migration z between -2 and 2; enough cells	5230
20	ACP5	-0.91	migration z between -2 and 2; enough cells	4888
21	RANBP1	0.02	migration z between -2 and 2; enough cells	5590
22	TAF7	1.27	migration z between -2 and 2; enough cells	5190
23	RTN4RL1	-0.16	migration z between -2 and 2; enough cells	6508
24	AKAP13	0.99	migration z between -2 and 2; enough cells	5706
25	PI4KB	-2.93 (active)	migration z below -2; enough cells	4252
26	DES	-0.11	migration z between -2 and 2; enough cells	5452
27	ZNF583	-1.28	migration z between -2 and 2; enough cells	5461
28	NRSN2	-0.07	migration z between -2 and 2; enough cells	5330
29	BHLHE22	-0.11	migration z between -2 and 2; enough cells	7236
30	RAB5B	-0.42	migration z between -2 and 2; enough cells	7392
31	SPANXC	-1.5	migration z between -2 and 2; enough cells	4246
32	HSD3B2	-1.55	migration z between -2 and 2; enough cells	5552
33	TAF15	0.24	migration z between -2 and 2; enough cells	5448
34	ICAM4	-1.61	migration z between -2 and 2; enough cells	4604
35	C8orf76	1.16	migration z between -2 and 2; enough cells	6440
36	ITPRID2	0.61	migration z between -2 and 2; enough cells	6569
37	G3BP1	1.74	migration z between -2 and 2; enough cells	7032
38	RAG1	-0.36	migration z between -2 and 2; enough cells	5194
39	RAB10	0	migration z between -2 and 2; enough cells	5436
